Reference: the supplement of paper PMC12764529
± gives the half width of the 95% confidence interval. For many entries, trypsin and chymotrypsin gave values far apart.

Legend:
[1] = folding stability dG unfold from chymotrypsin proteolysis; higher = more stable
Method: (§1)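 Folding stability of de novo designed mini-proteins (<80 aa, no Cys; designed by TrROS, TrMRF, ProteinMPNN and the joint model) was measured by cDNA display proteolysis with trypsin and chymotrypsin. Each protease was used at 11 concentrations in a threefold dilution series plus a no-protease condition. K50 was inferred by Bayesian fitting of sequencing counts, and dG unfold was derived against a sequence-predicted unfolded-state K50 (Tsuboyama et al. method). Sequences shown include variable-length N-terminal GS-type padding (SAGGSAGG...) inside a display construct carrying a PA tag. Rows were kept only if the AF2 dimer inter-PAE was >15, to exclude likely homo-oligomers.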

[2] = folding stability dG unfold (combined trypsin and chymotrypsin); higher = more stable
Method: as §1

Sequence	folding stability dG unfold [1] [kcal/mol]	folding stability dG unfold [2] [kcal/mol]
SAGGSAGGSAMRVKTVTVPPEGWEEVKKKLAEKYPFTVTGSEIGNGTVTVNFILPETVTGESAGGSAGGSAG [r3_457_JUSTAS]	1.11 ± 0.17	0.544 ± 0.1
SAGGSAGGSMKPLGQGDFEDPDGWKIKISMYPDGWFRIEIYDKNGKPKETIPVPANDLPDILKSAGGSAGGS [r12_664_TrROS]	1.43 ± 0.053	1.21 ± 0.064
SAGGSAGGSAGARTITLPVPPDLDVVRVEFPEGEVRTLPVSPDEDVVVEVPEDRITITVPSAGGSAGGSAGG [r11_52_JUSTAS]	1.09 ± 0.051	0.606 ± 0.071
SAGGSAGGSAGGSMLVEPRLVETLVEEGPEEPVPVLVETTVTVTVLPDGSLVVSTETRPASAGGSAGGSAGG [r11_607_JUSTAS]	1.45 ± 0.078	0.988 ± 0.14
SPPVEALLVDADYDEPVDTAHLTALRVRVLRVEVSPDGRLRAVGESELVEVTVPAPKDAPIPRDAVLLVGSA [r9_277_TrMRF]	1.18 ± 0.13	0.425 ± 0.054
SAGGSAGGSAREELVRRAAEEGLPGVRVLAIPPGNREVPAIVEGDKVYSYDLPDDAEVVVASAGGSAGGSAG [r3_244_TrMRF]	0.408 ± 0.08	-0.0679 ± 0.086
MPDISRAEIKALAEKLGLPVPDGTITIKFTYGDKTITVPVDAKKDITLGDIVEAIKKKNPNIKKIEIVAEPS [r1_135_TrMRF]	0.808 ± 0.08	0.907 ± 0.077
SAGGSAGGKKKVKYYKIKEVKIEKDEDGNYTITVKVDGKTFTITIPKEKIKPGMKLKDIVIKIKSAGGSAGG [r6_255_TrROS_Hall]	3.57 ± 0.038	3.16 ± 0.11
SAGGSAGGSAGMTITLPNGTVVTVERDESTGVWTITFPDGTTRTLELPDATLAEIEAALASAGGSAGGSAGG [r11_729_JUSTAS]	3.413 ± 0.018	3 ± 0.054
SAGGSAGGSAGMEISTKTLPGDKYELTITLPDSKGTPITVTITFTSEEEAKKKLEEIIKKSAGGSAGGSAGG [r11_819_JUSTAS]	2.7 ± 0.11	–
SSLDDLSPEQAVDQAKFMVRMIRESRDNGKPEQYPKMINMLRRMASSAPPPDRKAVKEVLEEFKIPPEWFSA [r9_182_TrROS]	–	< -1
SAGGSAGGSAGGAKPVTFTFPDGTKAVSVEETPTSVVLYDPGPGALYVLDKETKTITPASAGGSAGGSAGGS [r10_289_TrMRF]	-0.512 ± 0.29	-0.72 ± 0.34
SAGGSAKRVAFIGGGPEIEKVIKEAEKNGFEAVPFDGTPDEFLDALKKNFPDVKQIVFPDGKVLDASAGGSA [r15_712_TrMRF]	0.192 ± 0.13	-0.134 ± 0.13
SAGGSAGGSAGGEIKGKKFKIVKIVEVRYDKETKEFYVRIYIEDTNEIITVRLEDLPEELSAGGSAGGSAGG [r7_304_TrROS_Hall]	2.29 ± 0.025	2.25 ± 0.18
SAGGSAGGSRRPELRLLELPIPLPPGGSAEDVARALDAEPGFEVVEILEVDPATGRVRLLVRRSAGGSAGGS [r12_712_TrMRF]	1.92 ± 0.095	1.32 ± 0.059
SAGSEIEEIIKKIEEELKKKNPNKIVKVEKKKVIKKKKIVFIYEKKKTIEKEEYEIEIEITIKSPNIISAGG [r19_293_JUSTAS]	1.33 ± 0.21	0.83 ± 0.45
SAGGSAGGSAATVGEATLPDGSKVLVVTLPRADGRVLAVAALPDGTVIATADLATGRVTVFPASAGGSAGGS [r20_159_TrMRF]	1.21 ± 0.075	0.656 ± 0.093
SAGGITINEDGTITIEVNGKTYTIKLPPGAEITKIEVLEDGTIKITLRINGKTVTLELKVYKEGEEPSAGGS [r16_635_TrROS_Hall]	6.55 ± 0.68	–
SAGGSFIKITTKLPNRKIEIPIPDAEIEVEGNTVTITFPPGNAEEVKKAVLEASDEVEITEVKIIDESAGGS [r8_490_JUSTAS]	0.871 ± 0.026	0.557 ± 0.087
SAGGSAGGSAGKIRIHVPPEMPAEEVANEIQDELREENPGNGYPIKGVEISPGDSLEDIISAGGSAGGSAGG [r17_43_TrROS]	1.05 ± 0.064	0.307 ± 0.19

Sequence	folding stability dG unfold [1] [kcal/mol]	folding stability dG unfold [2] [kcal/mol]
SAGGSAGGSFEVEPTPDHVSIRYYNPDGNPPVSATVDPPEGDIDFEHPDKKQEFPLKPGDTLISAGGSAGGS [r12_536_TrROS]	–	< -1
SAGGSAGGSMKITKSPSGYYTVTINLPNGTTVEIKVSTSDPNATDEQIIEIAKPKAEEILKKSSAGGSAGGS [r12_642_JUSTAS]	2.87 ± 0.12	–
SEAEVEVEVLPGPDAVVVRVRLPGRDEVVELRVLDPHPGEGRVLVAVSPGDDDTVVVRDLSPEDIKALLASA [r9_1221_TrMRF]	0.973 ± 0.055	–
SAGGSPVLVPLEREETDPARGTRTRTRAYRLPERDIALVEREEIPFAPDGTPLRRTSEEVVSLEELLESAGG [r13_807_JUSTAS]	–	< -1
SAGGSAGGSAGGEARDNGVPTIEIPIPPEFKKGMPAEQMVDQLAKQLPPGVKDIHIEPPPSAGGSAGGSAGG [r7_487_TrROS]	0.744 ± 0.035	–
SAGGEEVVVERPPAPPPITVTIEYDEETNTVTVTVTLPNGETLTITVEAPSLEEAEAAARELLEALSSAGGS [r16_319_TrROS_Hall]	2.96 ± 0.37	–
SAGGSAGGSSPSSVTETTLPDGTKVTVKYDPVTNTTTVTTTFPDGTVVTVVNPNNTTTTSPTASAGGSAGGS [r12_360_JUSTAS]	2.55 ± 0.092	–
EIIEKLKEAIKNAKPGETIEIKLPDGTIIKIEIEEEEKEVDGKKVKTKKIKIEIYDKDGKLIKKIELEIKES [r1_386_TrROS_Hall]	–	> 6
SAGGSAGGSAGKIRIDARPNGNWRAHYPGGKEHEFNSPDDIKDELEKKFPNFDIIEIEPWSAGGSAGGSAGG [r11_806_TrROS]	–	< -1
SAGGSAKVIAVPSLEEALKLAEEAAKEGKDIVVLFPDNRLLVVEVKPAPDDKPVLKLKVFEIPPELSAGGSA [r15_761_TrMRF]	0.974 ± 0.072	–
SAGGSAGGSAGMKTLKTTTKVFPGTGVIVTESLVEFPNGSLKKLTKVTYVKNPNPSTTLASAGGSAGGSAGG [r17_41_JUSTAS]	0.545 ± 0.14	–
SAPPLPPDAVVETESEPVGVDPTENGTLTYYRRTVRVTLPDGSLTLESLVFRDPATGSSTSSVLRETALSAG [r14_293_JUSTAS]	–	< -1
MNIPLKEILDKAKAEGKPVVFPDGTKTLSFEPGGKATIEKPVEVPGKPGVPLETKTYTIDINEDGSVTVNDS [r1_284_JUSTAS]	-0.279 ± 0.15	–
SAGGSAGGSAKIKVEWEQHPEGYNLVKVEIPNPDNGKKKKVEGPFDSLEDAEDEAKELLKKSAGGSAGGSAG [r3_174_TrROS]	–	< -1
SAGGSATIEEIANMPAEEIAQEHGMEVKDVDIERVPNGTITVEVEYEPPDGKKHKHTFQIKIDEGQSAGGSA [r15_805_TrROS]	0.251 ± 0.11	–
SAGGSAGGSAPKLKFETEPYPNGGYYHKVKIDLEGPKIPITIPVNNNQPMPIEDFAKHILKKSAGGSAGGSA [r18_111_TrROS]	–	< -1
SAGGSAGGSAEEPPETVEIELEFELEDGLVVRIRIEVTPDGEIRIEIEVLPLEELEELFPEKSAGGSAGGSA [r18_302_TrROS_Hall]	2.51 ± 0.73	–
SAGGSAGGSAGGMTVKEIAEKLGLPPGLKVEDIPLDPPNGYFEIEITHDDGPHTYRIPISAGGSAGGSAGGS [r10_17_TrROS]	–	< -1
SAGGSAGGSAGGSGNFTIDPALLEEARAEAAAAGEALETIPLKVTRPGGETKTIDIKVGSAGGSAGGSAGGS [r4_367_JUSTAS]	–	< -1
SAGGSGDPNAAPVVVKVTIDITRPTADDSYVTSPVELTLLESEVDEFLAELEKEPDLELKVEVTLESAGGSA [r2_270_JUSTAS]	1.25 ± 0.026	–

Shown bar-delimited: part of the list above
Sequence | folding stability dG unfold [1] [kcal/mol] | folding stability dG unfold [2] [kcal/mol]
SAGGSAGGSAREELVRRAAEEGLPGVRVLAIPPGNREVPAIVEGDKVYSYDLPDDAEVVVASAGGSAGGSAG [r3_244_TrMRF] | 0.408 ± 0.08 | -0.0679 ± 0.086
SAGGSAGGSAGMEISTKTLPGDKYELTITLPDSKGTPITVTITFTSEEEAKKKLEEIIKKSAGGSAGGSAGG [r11_819_JUSTAS] | 2.7 ± 0.11 | –
